Reference: PubChem BioAssay AID1671190 (National Center for Advancing Translational Sciences (NCATS), 2021)
Values joined by “and” are separate entries in the source; they are usually repeats but may differ in a detail not shown here. Identical values can stand only once. About 6,100 (1.1%) of roughly 580,000 compounds were called active. The inconclusive results got no clear call from the source; some entries with a clear call stand among them for comparison. Calls follow the shape of the dose curve; as a rule, active = well fitted inhibition curve with a large enough effect; inconclusive = small, poorly fitted or top-dose-only effect, or another doubt; inactive = no such curve, though single readings can be large or run the other way. Where the call is inconclusive, the potency comes from a doubtful curve fit.

Chains of the proteins cited; added tags and fusions are not shown.
UniProt P18054, whole entry, looked up: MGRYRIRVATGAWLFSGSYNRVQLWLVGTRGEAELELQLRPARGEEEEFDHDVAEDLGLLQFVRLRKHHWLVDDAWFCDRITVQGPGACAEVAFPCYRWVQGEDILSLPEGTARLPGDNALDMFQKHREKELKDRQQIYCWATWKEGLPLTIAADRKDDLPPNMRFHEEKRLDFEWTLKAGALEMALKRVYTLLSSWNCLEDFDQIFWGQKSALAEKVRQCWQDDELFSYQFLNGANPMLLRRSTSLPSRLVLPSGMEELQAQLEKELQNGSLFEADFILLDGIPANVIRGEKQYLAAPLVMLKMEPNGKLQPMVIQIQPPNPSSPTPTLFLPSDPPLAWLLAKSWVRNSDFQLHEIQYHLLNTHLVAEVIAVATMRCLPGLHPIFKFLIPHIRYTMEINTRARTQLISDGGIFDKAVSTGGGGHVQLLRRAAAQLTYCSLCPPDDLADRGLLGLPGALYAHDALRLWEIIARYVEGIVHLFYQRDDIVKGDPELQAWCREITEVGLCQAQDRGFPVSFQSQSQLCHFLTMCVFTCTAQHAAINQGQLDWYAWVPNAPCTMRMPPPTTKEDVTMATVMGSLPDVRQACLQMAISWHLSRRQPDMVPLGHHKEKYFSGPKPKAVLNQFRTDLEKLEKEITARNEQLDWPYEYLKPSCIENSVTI

Each molecule was assayed against Polyunsaturated fatty acid lipoxygenase ALOX12 (Homo sapiens) (UniProt P18054) (assay: Primary qHTS assay for inhibitors of human arachidonate 12S-lipoxygenase (ALOX12): Round 2). Settings: purified 12hLO, xylenol orange hydroperoxide absorbance; activity change, negative = inhibition: at 108 µM (top of the series) unless noted.
How it was run: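 Purified human 12hLO (150 nM final) in 25 mM Hepes, 0.01% Triton X-100, pH 7.0 was preincubated 15 min at room temperature with compound. Then 40 uM arachidonic acid was added, 30 min. Hydroperoxide was read by Fe-XO absorbance ratio 573/405 nm.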
% is scaled to controls: 0 for no effect and ±100 for the full control effect; potency is read from the fitted curve at half-maximal effect.

Row | SMILES | Potency | activity change, negative = inhibition
1 | Cc1cc(Br)ccc1NC(=O)CSc1nc2cc([N+](=O)[O-])ccc2o1 | active: 17.8 µM | –
2 | CC(/C=C/c1ccc(N(C)C)cc1)=N\N=C(/N)SC1CC(=O)N(c2ccc(C(=O)O)cc2)C1=O (stereo not drawn) | inconclusive: 50.1 µM [inhibitor, partial curve, poor fit] | –
3 | CN(C)c1ncc2ncc(=O)n(CCc3ccccc3)c2n1 | inactive | –
4 | CCCCCC1C/C(=N\O)C=C(C)C1C(=O)OC (stereo not drawn) | inconclusive: 112 µM [inhibitor, partial curve, poor fit] | –
5 | COc1cc(Nc2c(C#N)cnc3c(OC)cccc23)cc(OC)c1OC | active: 3.16 µM | –
6 | CC(C)N1CCN(CCN2CC3(CCN(C(=O)CCN)CC3)OC2=O)CC1 | active: 17.8 µM | –
7 | NC(=O)c1c(NC(=O)CSc2nc3c(c(C(F)(F)F)n2)CCc2ccccc2-3)sc2c1CCCC2 | inactive | –
8 | CCCCCCCCCOc1ccc(C(=O)O)cc1 | inactive | –
9 | CC(c1ccccc1)C1C(C#N)=C(N)SC(N)=C1C#N (stereo not drawn) | inconclusive: 39.8 µM [inhibitor, partial curve, poor fit] | –
10 | CCOC(=O)C(=NC1CCCCC1)NNc1cccc(C(F)(F)F)c1 | active: 50.1 µM | –
11 | O=C(NCCCNc1nc(Nc2cccc(NC(=O)N3CCCC3)c2)ncc1I)c1cccs1 | inconclusive: 61.1 µM [inhibitor, single point] | –
12 | CCC(CO)Oc1cc(NC(=O)c2cccc3ccccc23)c2ncn(C(C)C)c2c1 (stereo not drawn) | inconclusive: 7.08 µM [inhibitor, full curve, poor fit] | –
13 | O=C(NCc1ccc(F)cc1)c1ccc(S(=O)(=O)Nc2cccc(C(F)(F)F)c2)cc1 | inconclusive: 79.4 µM [inhibitor, partial curve, poor fit] | –
14 | N=C(CC(O)COc1ccccc1-c1ccccc1)N1CCCCC1 (stereo not drawn) | inactive | –
15 | COc1ccc2[nH]cc(CCNc3ncncc3-c3cccc(NS(C)(=O)=O)c3)c2c1 | inconclusive: 44.7 µM [inhibitor, partial curve, poor fit] | –
16 | COc1ccc(-n2ncc3c(NCC(C)C)ncnc32)cc1 | active: 6.31 µM | –
17 | Cc1ccc(S(=O)(=O)NC(CC(N)=O)C(=O)O)cc1 (stereo not drawn) | inconclusive: 39.8 µM [inhibitor, partial curve, poor fit] | –
18 | COc1ccc(C(=O)CC(=O)c2ccc(F)cc2)cc1 | inconclusive: 100 µM [inhibitor, partial curve, poor fit] | –
19 | Fc1ccc(-c2nnc(COc3cccc(Cl)c3)o2)cc1 | inconclusive: 112 µM [inhibitor, single point] | –
20 | Cc1ccc(C)c(NC(=O)CCC(=O)NNC(=S)Nc2ccccc2)c1 | inactive | –
21 | COc1ccc(NC(=S)NC(=O)c2csnn2)cc1 | inconclusive: 79.4 µM [inhibitor, partial curve, poor fit] | –
22 | O=C(c1cc(=O)[nH]c2ccccc12)N1CCN(Cc2ccccc2)CC1 | inactive | –
23 | CC(C)CC1NC(=O)c2ccccc2-n2c1nc1cc(F)ccc1c2=O (stereo not drawn) | inconclusive: 4.47 µM [inhibitor, full curve, poor fit] | –

Row | SMILES | Potency | activity change, negative = inhibition
24 | CCCc1nccn1S(=O)(=O)c1cc(Br)ccc1OC | inconclusive: 56.2 µM [inhibitor, partial curve, poor fit] | –
25 | CN1CC2(CCCN(CC3CC3)C2)c2cc(C(=O)NCCc3ccccc3)ccc21 (stereo not drawn) | inconclusive: 44.7 µM [inhibitor, partial curve, poor fit] | –
26 | Cc1ccc[n+](CC(=O)Nc2c(Cl)cc(Cl)cc2Cl)c1 | inactive | –
27 | Cn1nc(C(C)(C)C)cc1C(=O)NNC(=O)c1cccc(Cl)c1 | inactive | –
28 | C[C@H](CO)N1C[C@H](C)[C@H](CN(C)C(=O)Nc2ccc(C(F)(F)F)cc2)Oc2ncc(-c3cccnc3)cc2C1=O | inconclusive: 70.8 µM [inhibitor, single point] | –
29 | O=C(NCc1ccccc1)c1ccc(S(=O)(=O)N2CCCc3ccccc32)cc1 | inactive | –
30 | COc1cccc(OCCn2c(CN3CCCCC3)nc3ccccc32)c1 | inconclusive: 3.55 µM [inhibitor, full curve, poor fit] | –
31 | O=C(c1ccc(Cl)cc1)N1CCC2(CC1)Cc1ccccc1NC2=O | inactive | –
32 | O=C(c1ccc(Cl)nc1)N1CCn2c(nn(-c3ccc([N+](=O)[O-])cc3)c2=O)C1 | inconclusive: 70.8 µM [inhibitor, partial curve] | –
33 | Cc1ccc(C(=O)NC(=S)NNC(=O)COc2ccc([N+](=O)[O-])cc2)cc1 | inconclusive: 112 µM [inhibitor, single point] | –
34 | COc1ccccc1N1CCN(CCCCOc2cccc3ccccc23)CC1 | inconclusive: 50.1 µM [inhibitor, partial curve, poor fit] | –
35 | O=C(/C=C/c1ccc(F)cc1)Nc1ccc(Cl)c(C(F)(F)F)c1 | inconclusive: 15.8 µM [inhibitor, partial curve, poor fit] | –
36 | COC(=O)c1ccc(NC(=O)Nc2ccc(F)cc2)cc1 | inconclusive: 100 µM [inhibitor, single point] | –
37 | C/C(=C\c1ccccc1)CN1CCC2(Cc3ccccc3CNC2=O)C1 (stereo not drawn) | inconclusive: 50.1 µM [inhibitor, partial curve] | –
38 | CC(=O)c1cccc(Nc2nc3ccccc3nc2NS(=O)(=O)c2cc(C)ccc2C)c1 | inactive | –
39 | Cc1ccc(C(NC(=O)N2CC(C)OC(C)C2)C(Cl)Cl)cc1F (stereo not drawn) | inconclusive: 7.08 µM [inhibitor, full curve, poor fit] | –
40 | Cc1nn(C)c2nc(N3CCC(C#N)(c4ccccc4)CC3)sc12 | inconclusive: 56.2 µM [inhibitor, partial curve, poor fit] | –
41 | CCC(=O)c1ccc(N2CCN(C(=O)c3cccs3)CC2)c(F)c1 | inconclusive: 112 µM [inhibitor, single point] | –
42 | COc1ccc(NC(=O)C(CCSC)NC(=O)C2CCC(C)CC2)cc1OC (stereo not drawn) | inactive | –
43 | CCOC(=O)c1nnc(-c2ccccc2)nc1Sc1c(Cl)cccc1Cl | inconclusive: 39.8 µM [inhibitor, partial curve] | –
44 | O=[N+]([O-])c1c(NC2CCN(C3CC3)CC2)ccc2ncccc12 | inconclusive: 89.1 µM [inhibitor, single point] | –
45 | S=C(Cc1nc(-c2ccccc2)cs1)N1CCOCC1 | inconclusive: 126 µM [inhibitor, single point] | –
46 | O=C(CSc1ncnc2c1oc1ccccc12)NCc1ccco1 | inactive | –

Row | SMILES | Potency | activity change, negative = inhibition
47 | COC(=O)c1ccc(COc2ccc(/C=N/NC(N)=S)cc2)o1 | inconclusive: 20 µM [inhibitor, partial curve, poor fit] | –
48 | Cc1cnc(C(=O)Oc2ccc(-c3ccc(C#N)cc3)cc2)cn1 | inconclusive: 25.1 µM [inhibitor, single point] | –
49 | O=c1cccc(-c2cccc3ccccc23)o1 | inconclusive: 50.1 µM [inhibitor, partial curve, poor fit] and inconclusive: 112 µM [inhibitor, partial curve, poor fit] | –
50 | CN(C)c1ncc2nc(CCc3ccccc3)c(=O)n(Cc3ccc(F)cc3)c2n1 | inconclusive: 100 µM [inhibitor, single point] | –
51 | CCC/C(C#Cc1cc(OC)cc(OC)c1)=C1/c2ccccc2C(=O)N1c1ccccc1 | inconclusive: 100 µM [inhibitor, partial curve, poor fit] | –
52 | N#Cc1ccsc1NC(=O)CSc1nnc(-c2ccccc2Cl)n1C1CCCC1 | inactive | –
53 | CCCNc1nc2ccccc2nc1C(=O)Nc1ccc(C(=O)OCC)cc1 | inactive | –
54 | Cn1c(=O)c2c(nc(Cl)n2CC(=O)N(C2CC2)C2CCS(=O)(=O)C2)n(C)c1=O (stereo not drawn) | – | inconclusive: -33.9% [inhibitor]
55 | Cc1cc(C)c(CN2CCN(CCCn3ccc(NC(=O)OCc4ccccc4)nc3=O)CC2)c(C)c1 | inconclusive: 31.6 µM [inhibitor, partial curve, poor fit] | –
56 | O=C(Nc1ccc(F)cc1)N1CCC(Oc2ncccc2C(=O)N2CCOCC2)C1 (stereo not drawn) | inactive | –
57 | COc1ccc(C(=O)N2CCC3(CCCN(C(=O)NC(C)C)C3)CC2)cc1 | inconclusive: 31.6 µM [inhibitor, single point] | –
58 | Cc1ccc(S(=O)(=O)N2CCN(C(=O)CN(Cc3ccco3)Cc3ccco3)CC2)cc1C | inconclusive: 22.4 µM [inhibitor, partial curve, poor fit] | –
59 | Cc1ccc(NC(=O)CN2C(=O)S/C(=C\c3ccccn3)C2=O)cc1C | inconclusive: 141 µM [inhibitor, single point] | –
60 | COc1cc(C(=O)Nc2ccc3oc(C)nc3c2)cc(OC)c1C | inconclusive: 112 µM [inhibitor, partial curve, poor fit] | –
61 | Oc1ccc(Cl)cc1C=NCc1ccc(F)c(Cl)c1 | inconclusive: 7.08 µM [inhibitor, full curve] | –
62 | CCN(CC)Cc1cnc2c(C(=O)Nc3cccc(OC)c3)cnn2c1 | inactive | –
63 | Cc1cc(C)c(S(=O)(=O)c2ccccc2)c(OC(=O)c2c(F)cccc2Cl)n1 | inconclusive: 126 µM [inhibitor, partial curve, poor fit] | –
64 | CC(C)c1ccc(NC(=S)NN(c2ccccc2)c2ccccc2)cc1 | active: 39.8 µM | –
65 | COc1cc(OC)c(NC(=O)c2cnc(NCc3ccc4c(c3)OCO4)nc2C)cc1Cl | inactive | –
66 | CCc1ccc(N2CC(c3noc(-c4cccc(OC)c4OC)n3)CC2=O)cc1 (stereo not drawn) | inactive | –
67 | Cc1nc2ccccc2nc1OCc1cccc(Cl)c1 | inactive | –
68 | CCOC(=O)c1c(CN2CCN(C)CC2)n(-c2ccccc2)c2cc(Br)c(O)cc12 | inconclusive: 112 µM [inhibitor, single point] | –
